In the supplement of paper PMC10849652:
Some of the results follow.

Sequences of proteins named here, by UniProt entry; tags and fusion partners are left off. A change or cut given only in a name is not applied to a line headed by its entry.
UniProt Q5H8A4: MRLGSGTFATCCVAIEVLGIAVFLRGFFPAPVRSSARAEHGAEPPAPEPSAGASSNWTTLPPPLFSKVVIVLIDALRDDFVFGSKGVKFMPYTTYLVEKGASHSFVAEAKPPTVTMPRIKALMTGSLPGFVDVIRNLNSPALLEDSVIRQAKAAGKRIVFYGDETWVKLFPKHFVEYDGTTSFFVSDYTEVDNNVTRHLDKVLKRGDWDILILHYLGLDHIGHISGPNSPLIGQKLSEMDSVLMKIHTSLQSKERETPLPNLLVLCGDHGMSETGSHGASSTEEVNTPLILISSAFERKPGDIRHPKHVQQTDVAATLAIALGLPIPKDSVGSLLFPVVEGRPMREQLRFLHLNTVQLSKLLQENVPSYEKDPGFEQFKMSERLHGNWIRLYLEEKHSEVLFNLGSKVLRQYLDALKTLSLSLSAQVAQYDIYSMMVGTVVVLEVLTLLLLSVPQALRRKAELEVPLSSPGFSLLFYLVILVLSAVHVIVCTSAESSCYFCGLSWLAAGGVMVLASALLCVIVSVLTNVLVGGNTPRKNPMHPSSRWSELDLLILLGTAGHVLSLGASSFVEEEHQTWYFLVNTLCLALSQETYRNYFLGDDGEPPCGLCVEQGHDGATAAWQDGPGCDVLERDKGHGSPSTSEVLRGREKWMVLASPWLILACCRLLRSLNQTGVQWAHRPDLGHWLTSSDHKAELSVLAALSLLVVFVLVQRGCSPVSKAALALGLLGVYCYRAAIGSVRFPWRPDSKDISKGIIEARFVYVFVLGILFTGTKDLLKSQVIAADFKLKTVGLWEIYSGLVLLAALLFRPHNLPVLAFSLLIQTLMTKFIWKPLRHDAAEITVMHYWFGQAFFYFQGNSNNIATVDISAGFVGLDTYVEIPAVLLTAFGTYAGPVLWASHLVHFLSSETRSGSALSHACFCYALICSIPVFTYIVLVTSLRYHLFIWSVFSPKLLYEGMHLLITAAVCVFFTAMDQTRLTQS
UniProt Q8N4L2: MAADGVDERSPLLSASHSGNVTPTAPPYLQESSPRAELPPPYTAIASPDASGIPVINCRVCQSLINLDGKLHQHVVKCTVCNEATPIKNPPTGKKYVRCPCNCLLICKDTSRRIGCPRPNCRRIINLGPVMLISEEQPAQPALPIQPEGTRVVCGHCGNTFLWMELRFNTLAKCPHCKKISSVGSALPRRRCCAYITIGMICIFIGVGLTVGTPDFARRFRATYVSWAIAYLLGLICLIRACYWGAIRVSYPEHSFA
UniProt O95394: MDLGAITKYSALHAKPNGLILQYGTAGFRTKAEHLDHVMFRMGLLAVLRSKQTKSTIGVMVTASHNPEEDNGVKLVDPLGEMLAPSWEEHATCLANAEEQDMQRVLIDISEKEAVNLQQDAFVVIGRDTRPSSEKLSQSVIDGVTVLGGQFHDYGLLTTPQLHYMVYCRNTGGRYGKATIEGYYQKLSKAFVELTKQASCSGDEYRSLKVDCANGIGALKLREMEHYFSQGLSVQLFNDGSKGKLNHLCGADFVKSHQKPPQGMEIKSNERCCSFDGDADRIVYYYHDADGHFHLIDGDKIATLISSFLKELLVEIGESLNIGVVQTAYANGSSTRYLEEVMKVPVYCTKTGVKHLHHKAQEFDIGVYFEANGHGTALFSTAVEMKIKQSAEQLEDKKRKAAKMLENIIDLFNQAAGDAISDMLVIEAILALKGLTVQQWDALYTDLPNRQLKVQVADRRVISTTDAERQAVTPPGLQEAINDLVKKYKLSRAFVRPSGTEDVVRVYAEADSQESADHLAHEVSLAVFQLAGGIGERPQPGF
UniProt Q16513: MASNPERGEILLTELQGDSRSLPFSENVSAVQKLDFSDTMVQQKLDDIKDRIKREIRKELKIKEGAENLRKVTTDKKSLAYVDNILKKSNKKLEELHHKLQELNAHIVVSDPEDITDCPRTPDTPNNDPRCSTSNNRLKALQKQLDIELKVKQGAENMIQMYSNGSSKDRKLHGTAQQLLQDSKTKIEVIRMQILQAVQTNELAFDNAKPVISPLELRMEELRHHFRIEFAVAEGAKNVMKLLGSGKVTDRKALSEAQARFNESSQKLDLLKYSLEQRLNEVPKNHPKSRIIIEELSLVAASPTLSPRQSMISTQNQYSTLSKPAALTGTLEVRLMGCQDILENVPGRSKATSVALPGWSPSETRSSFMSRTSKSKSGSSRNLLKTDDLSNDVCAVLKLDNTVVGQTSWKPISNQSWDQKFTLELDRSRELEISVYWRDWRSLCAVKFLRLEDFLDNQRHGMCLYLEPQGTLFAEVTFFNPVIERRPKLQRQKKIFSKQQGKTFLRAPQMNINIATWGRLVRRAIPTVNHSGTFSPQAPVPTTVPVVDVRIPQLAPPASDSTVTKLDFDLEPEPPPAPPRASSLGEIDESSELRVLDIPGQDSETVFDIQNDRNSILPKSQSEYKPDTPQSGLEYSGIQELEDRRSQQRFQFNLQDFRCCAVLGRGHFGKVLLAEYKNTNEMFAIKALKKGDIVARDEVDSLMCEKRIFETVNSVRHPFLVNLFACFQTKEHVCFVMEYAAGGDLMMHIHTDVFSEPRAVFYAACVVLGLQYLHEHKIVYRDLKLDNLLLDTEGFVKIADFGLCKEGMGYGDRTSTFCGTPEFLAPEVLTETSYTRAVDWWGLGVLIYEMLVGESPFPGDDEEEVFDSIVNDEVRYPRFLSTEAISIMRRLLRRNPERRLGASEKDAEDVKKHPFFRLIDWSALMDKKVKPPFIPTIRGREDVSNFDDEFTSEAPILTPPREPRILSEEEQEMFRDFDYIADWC
UniProt Q6P4A8: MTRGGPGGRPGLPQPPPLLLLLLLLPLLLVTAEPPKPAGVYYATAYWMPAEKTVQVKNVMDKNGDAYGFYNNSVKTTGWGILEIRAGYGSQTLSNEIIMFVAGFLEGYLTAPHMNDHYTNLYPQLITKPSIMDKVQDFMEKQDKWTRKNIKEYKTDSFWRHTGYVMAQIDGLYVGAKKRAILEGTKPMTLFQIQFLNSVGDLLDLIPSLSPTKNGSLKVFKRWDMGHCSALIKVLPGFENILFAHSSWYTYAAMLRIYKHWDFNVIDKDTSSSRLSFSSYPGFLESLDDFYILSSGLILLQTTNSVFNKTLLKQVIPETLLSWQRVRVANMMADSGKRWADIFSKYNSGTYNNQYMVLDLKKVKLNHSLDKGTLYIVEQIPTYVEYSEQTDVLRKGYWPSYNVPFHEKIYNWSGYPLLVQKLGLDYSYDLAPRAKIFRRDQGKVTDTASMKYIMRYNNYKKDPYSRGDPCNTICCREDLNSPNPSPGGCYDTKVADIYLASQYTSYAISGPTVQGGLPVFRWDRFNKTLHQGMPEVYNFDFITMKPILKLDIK
UniProt Q16512: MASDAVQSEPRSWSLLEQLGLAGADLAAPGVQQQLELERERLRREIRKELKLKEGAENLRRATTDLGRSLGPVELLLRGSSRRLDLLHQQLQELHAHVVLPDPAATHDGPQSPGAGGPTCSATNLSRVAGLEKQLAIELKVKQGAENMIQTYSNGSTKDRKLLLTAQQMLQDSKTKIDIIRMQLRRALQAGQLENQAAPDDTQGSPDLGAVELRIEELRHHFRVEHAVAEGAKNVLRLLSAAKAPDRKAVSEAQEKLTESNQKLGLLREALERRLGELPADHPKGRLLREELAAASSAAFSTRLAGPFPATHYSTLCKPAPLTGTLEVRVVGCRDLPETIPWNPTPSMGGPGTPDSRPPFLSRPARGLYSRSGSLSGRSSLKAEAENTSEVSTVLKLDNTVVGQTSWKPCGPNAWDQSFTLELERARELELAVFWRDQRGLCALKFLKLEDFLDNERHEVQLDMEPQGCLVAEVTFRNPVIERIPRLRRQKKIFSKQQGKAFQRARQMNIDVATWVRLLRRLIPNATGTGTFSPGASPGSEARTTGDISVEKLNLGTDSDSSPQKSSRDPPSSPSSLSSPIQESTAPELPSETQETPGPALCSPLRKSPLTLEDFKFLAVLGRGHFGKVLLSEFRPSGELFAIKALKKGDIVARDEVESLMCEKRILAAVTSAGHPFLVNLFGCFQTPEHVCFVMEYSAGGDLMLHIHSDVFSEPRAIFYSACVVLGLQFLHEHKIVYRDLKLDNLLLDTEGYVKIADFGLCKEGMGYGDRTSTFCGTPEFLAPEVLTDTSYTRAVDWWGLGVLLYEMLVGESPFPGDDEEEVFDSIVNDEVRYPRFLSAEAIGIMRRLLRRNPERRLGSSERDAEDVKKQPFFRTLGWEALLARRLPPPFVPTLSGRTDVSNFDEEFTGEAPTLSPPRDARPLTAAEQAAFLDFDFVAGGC
UniProt Q32M88: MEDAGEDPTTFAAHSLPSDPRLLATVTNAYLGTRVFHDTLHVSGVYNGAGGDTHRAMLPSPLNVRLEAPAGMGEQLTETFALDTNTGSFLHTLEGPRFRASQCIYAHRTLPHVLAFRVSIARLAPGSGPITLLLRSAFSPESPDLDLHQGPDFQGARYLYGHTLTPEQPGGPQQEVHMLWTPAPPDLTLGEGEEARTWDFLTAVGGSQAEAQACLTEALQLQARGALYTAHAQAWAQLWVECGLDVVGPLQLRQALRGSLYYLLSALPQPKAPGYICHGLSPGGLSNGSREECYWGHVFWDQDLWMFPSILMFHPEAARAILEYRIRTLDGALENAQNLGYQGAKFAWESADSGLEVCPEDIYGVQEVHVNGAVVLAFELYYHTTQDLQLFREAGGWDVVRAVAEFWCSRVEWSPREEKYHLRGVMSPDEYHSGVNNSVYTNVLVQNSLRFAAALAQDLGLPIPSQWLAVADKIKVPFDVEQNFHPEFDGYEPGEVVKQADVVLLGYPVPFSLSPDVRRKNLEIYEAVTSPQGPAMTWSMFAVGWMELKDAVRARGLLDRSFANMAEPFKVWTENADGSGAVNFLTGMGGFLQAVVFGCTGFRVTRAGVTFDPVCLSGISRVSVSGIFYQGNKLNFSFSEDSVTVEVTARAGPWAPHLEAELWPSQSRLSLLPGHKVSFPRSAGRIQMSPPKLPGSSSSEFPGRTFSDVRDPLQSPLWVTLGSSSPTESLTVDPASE
UniProt Q5JRX3: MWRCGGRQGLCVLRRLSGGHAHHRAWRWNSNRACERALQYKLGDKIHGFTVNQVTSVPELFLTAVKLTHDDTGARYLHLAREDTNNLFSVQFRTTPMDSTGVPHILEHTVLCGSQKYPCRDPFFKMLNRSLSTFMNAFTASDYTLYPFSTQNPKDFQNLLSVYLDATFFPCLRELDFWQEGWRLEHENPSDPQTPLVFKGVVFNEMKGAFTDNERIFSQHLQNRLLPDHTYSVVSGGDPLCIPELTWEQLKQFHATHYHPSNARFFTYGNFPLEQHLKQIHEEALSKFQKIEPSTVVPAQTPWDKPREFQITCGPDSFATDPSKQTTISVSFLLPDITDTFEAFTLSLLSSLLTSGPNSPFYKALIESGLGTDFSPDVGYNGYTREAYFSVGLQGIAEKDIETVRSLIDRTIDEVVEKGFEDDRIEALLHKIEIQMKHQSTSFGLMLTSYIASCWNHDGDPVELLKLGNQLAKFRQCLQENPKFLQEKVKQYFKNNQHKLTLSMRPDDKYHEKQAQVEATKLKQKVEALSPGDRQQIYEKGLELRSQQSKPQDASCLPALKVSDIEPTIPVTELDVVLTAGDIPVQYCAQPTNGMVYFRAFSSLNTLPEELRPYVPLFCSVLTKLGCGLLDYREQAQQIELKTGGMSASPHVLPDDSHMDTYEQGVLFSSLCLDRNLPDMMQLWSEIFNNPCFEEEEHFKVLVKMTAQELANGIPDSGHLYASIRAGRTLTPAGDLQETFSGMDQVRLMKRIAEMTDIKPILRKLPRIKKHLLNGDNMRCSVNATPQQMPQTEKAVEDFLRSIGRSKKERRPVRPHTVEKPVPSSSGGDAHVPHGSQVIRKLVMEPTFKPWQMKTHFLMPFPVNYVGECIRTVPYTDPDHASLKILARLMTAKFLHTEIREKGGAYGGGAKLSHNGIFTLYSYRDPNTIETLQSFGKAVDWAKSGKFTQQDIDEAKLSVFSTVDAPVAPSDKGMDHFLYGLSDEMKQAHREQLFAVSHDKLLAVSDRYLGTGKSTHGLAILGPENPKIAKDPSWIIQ
UniProt Q8IV08: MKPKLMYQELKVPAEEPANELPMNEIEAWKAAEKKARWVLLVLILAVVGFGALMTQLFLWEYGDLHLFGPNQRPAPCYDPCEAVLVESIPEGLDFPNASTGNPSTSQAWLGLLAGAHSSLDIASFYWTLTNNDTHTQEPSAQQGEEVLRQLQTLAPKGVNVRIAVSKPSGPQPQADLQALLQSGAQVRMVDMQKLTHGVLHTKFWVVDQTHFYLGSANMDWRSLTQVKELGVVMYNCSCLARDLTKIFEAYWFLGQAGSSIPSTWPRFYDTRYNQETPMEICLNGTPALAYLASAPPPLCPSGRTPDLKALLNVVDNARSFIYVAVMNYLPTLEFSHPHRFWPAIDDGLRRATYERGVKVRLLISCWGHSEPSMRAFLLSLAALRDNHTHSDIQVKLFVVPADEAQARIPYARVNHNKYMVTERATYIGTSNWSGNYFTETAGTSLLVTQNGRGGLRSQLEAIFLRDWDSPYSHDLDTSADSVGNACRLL

Legend:
Assay in all cases: log2 fold change, soluble protein after heating vs DMSO (PISA); higher = thermal stabilisation; K562 cells, 10 uM, 30 min; active = over 0.2 and 3.5 SD of the protein, either way, in both replicates (recomputed)
[1] = compound: CS(=O)(=O)c1ccc(-c2cnc(N)c(C(=O)Nc3ccccc3)n2)cc1
Outline: (§1)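 Aliquots of K562 cells (2×10^6 cells/mL) treated with 10 μM compound for 30 min were heated for 3 min over 48°C-58°C. After pooling and extraction in PBS with 0.5% NP-40 at 4°C, soluble protein from a 21,000xg, 90 min spin was quantified by TMTpro 16plex LC-MS/MS with channel sums equalised. Thermal stability is expressed against control samples, from duplicates, as a log2 fold change.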

crizotinib = compound: C[C@@H](Oc1cc(-c2cnn(C3CCNCC3)c2)cnc1N)c1c(Cl)ccc(F)c1Cl [crizotinib]
Outline: as §1

[2] = compound: C[C@@H]1COCCN1C2=NC(=NC(=C2)C3(CC3)S(=O)(=O)C)C4=C5C=CNC5=CC=C4
Outline: as §1

doramapimod = compound: Cc1ccc(-n2nc(C(C)(C)C)cc2NC(=O)Nc2ccc(OCCN3CCOCC3)c3ccccc23)cc1 [doramapimod]
Outline: as §1

[3] = compound: C[C@H](C1=CC=C(C=C1)C(=O)NC2=C3C=CNC3=NC=C2)N
Outline: as §1

gandotinib = compound: Cc1cc(Nc2cc(CN3CCOCC3)c3nc(C)c(Cc4ccc(Cl)cc4F)n3n2)n[nH]1 [gandotinib]
Outline: as §1

[4] = compound: Cc1cc(SCc2sc(-c3ccc(C(F)(F)F)cc3)nc2C)ccc1OCC(=O)O
Outline: as §1

ispinesib = compound: Cc1ccc(C(=O)N(CCCN)[C@@H](c2nc3cc(Cl)ccc3c(=O)n2Cc2ccccc2)C(C)C)cc1 [ispinesib]
Outline: as §1

In the case of PLD6 (UniProt Q8N2A8), the log2 fold change [1] is reported as inactive: -0.076, the log2 fold change (crizotinib) is reported as inactive: -0.092 and the log2 fold change [2] is reported as inactive: -0.151. For the same target, the log2 fold change (doramapimod) was inactive: 0.071.
With PIGG (UniProt Q5H8A4) the log2 fold change [1] was inactive: 0.062, the log2 fold change (crizotinib) was inactive: -0.053 and the log2 fold change [2] was inactive: 0.01. The log2 fold change [3] was inactive: -0.041, the log2 fold change (gandotinib) was inactive: -0.035 and the log2 fold change [4] was inactive: 0.011. For the same target, the log2 fold change (doramapimod) was inactive: 0.098 and the log2 fold change (ispinesib) was inactive: -0.02.
For PIP4P2 (UniProt Q8N4L2), the log2 fold change [1] was inactive: -0.057, the log2 fold change (crizotinib) was active: -0.3 and the log2 fold change [2] was inactive: 0.013. The log2 fold change [3] was inactive: -0.058, the log2 fold change (gandotinib) was inactive: 0.017 and the log2 fold change [4] was inactive: 0.013. The log2 fold change (doramapimod) was inactive: -0.032 and the log2 fold change (ispinesib) was active: -0.569.
For PLCL1 (UniProt Q15111), the log2 fold change [1] was inactive: 0.112, the log2 fold change (crizotinib) was inactive: -0.03 and the log2 fold change [2] was inactive: 0.074. For the same target, the log2 fold change [3] was inactive: -0.263, the log2 fold change (gandotinib) was inactive: -0.14 and the log2 fold change (doramapimod) was inactive: -0.08. For the same target, the log2 fold change (ispinesib) was inactive: -0.162.
For PGM3 isoform 4 (UniProt O95394), the log2 fold change [1] was inactive: 0.025, the log2 fold change (crizotinib) was inactive: -0.098 and the log2 fold change [2] was inactive: 0.04. The log2 fold change [3] was inactive: -0.024, the log2 fold change (gandotinib) was inactive: -0.034 and the log2 fold change [4] was inactive: 0.108. For the same target, the log2 fold change (doramapimod) was inactive: 0.016 and the log2 fold change (ispinesib) was inactive: -0.09.
In the case of PKN2 (UniProt Q16513), the log2 fold change [1] is reported as inactive: 0.025, the log2 fold change (crizotinib) is reported as inactive: -0.191 and the log2 fold change [2] is reported as inactive: 0.067. The log2 fold change [3] was inactive: -0.057, the log2 fold change (gandotinib) was inactive: -0.058 and the log2 fold change [4] was inactive: 0.133. For the same target, the log2 fold change (doramapimod) was inactive: 0.035 and the log2 fold change (ispinesib) was inactive: -0.028.
With PIP4K2B (UniProt P78356) the log2 fold change [1] was active: 0.63, the log2 fold change (crizotinib) was inactive: -0.01 and the log2 fold change [2] was inactive: 0.048. The log2 fold change [3] was inactive: -0.072, the log2 fold change (gandotinib) was inactive: -0.031 and the log2 fold change [4] was inactive: -0.009. The log2 fold change (doramapimod) was inactive: -0.055 and the log2 fold change (ispinesib) was inactive: -0.007.
For PLBD1 (UniProt Q6P4A8), the log2 fold change [1] was inactive: -0.01, the log2 fold change (crizotinib) was inactive: -0.082 and the log2 fold change [2] was inactive: 0.009. For the same target, the log2 fold change [3] was inactive: -0.032, the log2 fold change (gandotinib) was inactive: 0.011 and the log2 fold change [4] was inactive: -0.032. For the same target, the log2 fold change (doramapimod) was inactive: -0.007 and the log2 fold change (ispinesib) was inactive: 0.016.
In the case of PGGT1B (UniProt P53609), the log2 fold change [1] is reported as inactive: 0.093, the log2 fold change (crizotinib) is reported as inactive: 0.04 and the log2 fold change [2] is reported as inactive: 0.002. The log2 fold change [3] was inactive: -0.05, the log2 fold change (gandotinib) was inactive: -0.011 and the log2 fold change [4] was inactive: -0.143. For the same target, the log2 fold change (doramapimod) was inactive: -0.028 and the log2 fold change (ispinesib) was inactive: 0.043.
With PKN1 isoform 2 (UniProt Q16512) the log2 fold change [1] was inactive: 0.03, the log2 fold change (crizotinib) was inactive: -0.233 and the log2 fold change [2] was inactive: -0.015. The log2 fold change [3] was inactive: -0.12, the log2 fold change (gandotinib) was inactive: -0.165 and the log2 fold change [4] was inactive: 0.075. For the same target, the log2 fold change (doramapimod) was inactive: 0.022 and the log2 fold change (ispinesib) was inactive: -0.065.
In the case of PJA2 (UniProt O43164), the log2 fold change [1] is reported as inactive: 0.032, the log2 fold change (crizotinib) is reported as inactive: -0.042 and the log2 fold change [2] is reported as inactive: -0.126. The log2 fold change [3] was inactive: 0.091, the log2 fold change (gandotinib) was inactive: 0.097 and the log2 fold change [4] was inactive: -0.118. For the same target, the log2 fold change (doramapimod) was inactive: 0.033 and the log2 fold change (ispinesib) was inactive: -0.098.
With PGGHG (UniProt Q32M88) the log2 fold change [1] was inactive: 0.019, the log2 fold change (crizotinib) was inactive: -0.01 and the log2 fold change [2] was inactive: 0.003. For the same target, the log2 fold change [3] was inactive: 0.175, the log2 fold change (gandotinib) was inactive: -0.039 and the log2 fold change [4] was inactive: 0.049. The log2 fold change (doramapimod) was inactive: 0.048 and the log2 fold change (ispinesib) was inactive: 0.05.
In the case of PKM isoform 2 (UniProt P14618), the log2 fold change [1] is reported as inactive: -0.053, the log2 fold change (crizotinib) is reported as inactive: -0.033 and the log2 fold change [2] is reported as inactive: -0.154. The log2 fold change (gandotinib) was inactive: 0.131, the log2 fold change [4] was inactive: 0.12 and the log2 fold change (doramapimod) was inactive: 0.029. The log2 fold change (ispinesib) was inactive: 0.016.
In the case of PITRM1 isoform 2 (UniProt Q5JRX3), the log2 fold change [1] is reported as inactive: -0.042, the log2 fold change (crizotinib) is reported as inactive: 0.01 and the log2 fold change [2] is reported as inactive: 0.094. For the same target, the log2 fold change [3] was inactive: -0.023, the log2 fold change (gandotinib) was inactive: 0.038 and the log2 fold change [4] was inactive: 0. The log2 fold change (doramapimod) was inactive: -0.014 and the log2 fold change (ispinesib) was active: -0.38.
In the case of PHC3 isoform 7 (UniProt Q8NDX5), the log2 fold change [1] is reported as inactive: -0.068, the log2 fold change (crizotinib) is reported as inactive: -0.194 and the log2 fold change [2] is reported as inactive: 0.317. The log2 fold change [3] was inactive: 0.073 and the log2 fold change (doramapimod) was inactive: 0.131.
In the case of PLD3 (UniProt Q8IV08), the log2 fold change [1] is reported as inactive: -0.034, the log2 fold change (crizotinib) is reported as inactive: -0.158 and the log2 fold change [2] is reported as inactive: 0.005. The log2 fold change [3] was inactive: -0.03, the log2 fold change (gandotinib) was inactive: 0.006 and the log2 fold change [4] was inactive: -0.023. The log2 fold change (doramapimod) was inactive: 0.001 and the log2 fold change (ispinesib) was inactive: -0.132.
